Data reported in PMC11348715 (Chemical Science, 2024).

Assay: Caco-2 permeability assay
Type: in vitro ADME
Conditions: human

Q: For `C[C@H]1O[C@@H](O[C@H]2[C@@H](O)C[C@H](O[C@H]3[C@@H](O)C[C@H](O[C@H]4CC[C@@]5(C)[C@H](CC[C@@H]6[C@@H]5C[C@@H](O)[C@]5(C)[C@@H](C7=CC(=O)OC7)CC[C@]65O)C4)O[C@@H]3C)O[C@@H]2C)C[C@H](O)[C@@H]1O` [digoxin], which Papp B→A at 10 µM (Caco-2) is on record?
A: 12.2 ×10⁻⁶ cm/s

Q: What about the efflux ratio at 10 µM (Caco-2, efflux ratio (ER), Caco-2, donor concentration 10 μM) of the same compound?
A: 7.68
